From US20110256062A1

Sequences of proteins named here, by UniProt entry; tags and fusion partners are left off. A change or cut given only in a name is not applied to a line headed by its entry.
UniProt Q5S007: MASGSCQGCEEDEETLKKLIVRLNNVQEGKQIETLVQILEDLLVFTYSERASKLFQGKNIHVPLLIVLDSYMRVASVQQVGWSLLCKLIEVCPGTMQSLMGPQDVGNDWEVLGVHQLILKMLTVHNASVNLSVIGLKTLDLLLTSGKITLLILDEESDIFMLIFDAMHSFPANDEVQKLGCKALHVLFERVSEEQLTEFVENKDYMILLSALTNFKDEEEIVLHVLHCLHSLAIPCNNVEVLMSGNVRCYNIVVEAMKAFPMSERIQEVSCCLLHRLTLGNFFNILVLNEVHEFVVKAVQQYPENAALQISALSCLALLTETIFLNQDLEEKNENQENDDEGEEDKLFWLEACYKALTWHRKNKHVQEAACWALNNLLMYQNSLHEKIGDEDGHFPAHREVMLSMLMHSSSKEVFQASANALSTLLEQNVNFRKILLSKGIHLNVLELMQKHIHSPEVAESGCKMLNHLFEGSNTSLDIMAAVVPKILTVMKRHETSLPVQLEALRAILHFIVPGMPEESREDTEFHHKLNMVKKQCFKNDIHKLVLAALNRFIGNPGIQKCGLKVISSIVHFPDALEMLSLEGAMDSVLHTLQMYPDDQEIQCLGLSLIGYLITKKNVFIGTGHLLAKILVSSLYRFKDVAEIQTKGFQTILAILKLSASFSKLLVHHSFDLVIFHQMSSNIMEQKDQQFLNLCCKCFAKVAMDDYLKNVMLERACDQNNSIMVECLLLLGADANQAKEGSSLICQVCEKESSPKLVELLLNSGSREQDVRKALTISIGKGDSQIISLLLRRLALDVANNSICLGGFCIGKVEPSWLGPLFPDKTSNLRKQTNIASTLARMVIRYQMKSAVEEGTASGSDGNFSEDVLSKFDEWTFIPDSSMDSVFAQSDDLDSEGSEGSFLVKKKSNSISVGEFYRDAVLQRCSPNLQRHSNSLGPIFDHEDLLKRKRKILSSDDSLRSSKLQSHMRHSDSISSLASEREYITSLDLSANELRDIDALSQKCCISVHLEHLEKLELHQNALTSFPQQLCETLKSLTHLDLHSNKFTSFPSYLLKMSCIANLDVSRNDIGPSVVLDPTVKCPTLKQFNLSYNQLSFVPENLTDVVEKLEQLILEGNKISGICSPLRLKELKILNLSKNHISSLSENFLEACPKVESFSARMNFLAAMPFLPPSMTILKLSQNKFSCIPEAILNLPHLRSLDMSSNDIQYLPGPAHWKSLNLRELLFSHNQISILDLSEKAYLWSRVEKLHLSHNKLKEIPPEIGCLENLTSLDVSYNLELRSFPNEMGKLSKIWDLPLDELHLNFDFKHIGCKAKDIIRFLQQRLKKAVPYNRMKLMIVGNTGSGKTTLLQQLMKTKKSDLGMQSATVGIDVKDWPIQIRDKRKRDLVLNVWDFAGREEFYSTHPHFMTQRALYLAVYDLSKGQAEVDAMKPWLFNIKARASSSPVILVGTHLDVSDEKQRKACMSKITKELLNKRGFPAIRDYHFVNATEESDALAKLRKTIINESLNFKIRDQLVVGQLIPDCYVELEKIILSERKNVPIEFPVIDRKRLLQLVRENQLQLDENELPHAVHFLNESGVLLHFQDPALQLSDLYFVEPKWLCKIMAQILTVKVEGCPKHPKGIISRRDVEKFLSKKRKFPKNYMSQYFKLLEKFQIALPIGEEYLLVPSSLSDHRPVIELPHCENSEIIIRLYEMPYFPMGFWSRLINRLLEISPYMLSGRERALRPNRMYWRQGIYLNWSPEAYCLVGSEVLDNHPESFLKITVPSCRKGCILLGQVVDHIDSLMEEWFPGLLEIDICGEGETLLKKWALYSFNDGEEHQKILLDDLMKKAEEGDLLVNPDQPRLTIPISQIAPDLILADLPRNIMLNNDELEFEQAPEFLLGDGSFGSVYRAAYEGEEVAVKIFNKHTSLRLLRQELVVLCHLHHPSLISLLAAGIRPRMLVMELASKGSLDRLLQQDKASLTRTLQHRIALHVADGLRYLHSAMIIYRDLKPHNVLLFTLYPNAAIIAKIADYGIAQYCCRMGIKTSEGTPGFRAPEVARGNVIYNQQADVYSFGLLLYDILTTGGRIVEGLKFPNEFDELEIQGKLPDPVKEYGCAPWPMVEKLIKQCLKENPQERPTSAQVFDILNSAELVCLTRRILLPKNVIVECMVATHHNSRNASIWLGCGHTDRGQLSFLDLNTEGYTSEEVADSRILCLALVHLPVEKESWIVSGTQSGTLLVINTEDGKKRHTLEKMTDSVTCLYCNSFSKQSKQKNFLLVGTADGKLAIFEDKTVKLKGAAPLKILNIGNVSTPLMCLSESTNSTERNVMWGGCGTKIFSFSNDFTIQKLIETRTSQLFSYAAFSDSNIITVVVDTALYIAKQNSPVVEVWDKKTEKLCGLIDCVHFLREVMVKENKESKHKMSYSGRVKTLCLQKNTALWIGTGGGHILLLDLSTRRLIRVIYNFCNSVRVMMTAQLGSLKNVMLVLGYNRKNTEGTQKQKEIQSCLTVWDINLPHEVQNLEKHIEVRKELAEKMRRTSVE

Tests used:
[1] = biological target: wild type full-length GFP-LRRK2 (human) (UniProt Q5S007); assay: SILAC mass spectrometry of GFP-binder immunoprecipitates from HEK-293 lysates, against GFP alone
[2] = biological target: full-length GFP-LRRK2[G2019S] mutant (human) (UniProt Q5S007); assay: as above

binding [1]	binding [2]	Binder
binds	–	14-3-3 eta (endogenous, HEK-293 cells) (protein) GDREQLLQRARLAEQAERYDDMASAMKAVTELNEPLSNEDRNLLSVAYKNVVGARRSSWRVISSIEQKTMADGNEKKLEKVKAYREKIEKELETVCNDVLSLLDKFLIKNCNDFQYESKVFYLKMKGDYYRYLAEVASGEKKNSVVEASEAAYKEAFEISKEQMQPTHPIRLGLALNFSVFYYEIQNAPEQACLLAKQAFDDAIAELDTLNEDSYKDSTLIMQLLRDNLTLWTSDQQDEEAGEGN
binds	binds	14-3-3 theta (endogenous, HEK-293 cells) (protein) MEKTELIQKAKLAEQAERYDDMATCMKAVTEQGAELSNEERNLLSVAYKNVVGGRRSAWRVISSIEQKTDTSDKKLQLIKDYREKVESELRSICTTVLELLDKYLIANATNPESKVFYLKMKGDYFRYLAEVACGDDRKQTIDNSQGAYQEAFDISKKEMQPTHPIRLGLALNFSVFYYEILNNPELACTLAKTAFDEAIAELDTLNEDSYKDSTLIMQLLRDNLTLWTSDSAGEECDAAEGAEN
–	binds	14-3-3 gamma (endogenous, HEK-293 cells) (protein) MVDREQLVQKARLAEQAERYDDMAAAMKNVTELNEPLSNEERNLLSVAYKNVVGARRSSWRVISSIEQKTSADGNEKKIEMVRAYREKIEKELEAVCQDVLSLLDNYLIKNCSETQYESKVFYLKMKGDYYRYLAEVATGEKRATVVESSEKAYSEAHEISKEHMQPTHPIRLGLALNYSVFYYEIQNAPEQACHLAKTAFDDAIAELDTLNEDSYKDSTLIMQLLRDNLTLWTSDQQDDDGGEGNN

Results are given in words; binding and its absence hold for the method and conditions named. In cells and extracts the contact can be indirect. Here binding means that the protein was enriched with, or labelled near, the bait; the list need not be complete.
